{"source": "patent US7875260B2", "about": "“Imaging agents for functional imaging of lymphatic structures” (Baylor College of Medicine, priority 2006, dated 2011)", "system": "swine lymph vessels", "experiment": "NIR fluorescence imaging of ICG lymph propulsion in swine", "assay_type": "in vivo", "key": {"[1]": {"conditions": "leg lymph vessel, four hours after injection on the leg"}}}
{"smiles": "CC1(C)C(/C=C/C=C/C=C/C=C2\\N(CCCCS(=O)(=O)O)c3ccc4ccccc4c3C2(C)C)=[N+](CCCCS(=O)(=O)[O-])c2ccc3ccccc3c21", "note": "[ICG, indocyanine green]", "values": [{"measurement": "frequency of ICG pulses passing a fixed location on the vessel", "setting": "abdominal lymph vessels, 200 μl injection of 32 μM ICG", "value": "0.5-1.3 pulses/min"}, {"measurement": "duration of lymph flow from injection site to middle iliac node", "setting": "hindlimb, intradermal 200 μl of 32 μM ICG, duration of anesthesia", "value": 4, "unit": "h"}, {"measurement": "rate of propelling ICG packets", "setting": "[1]", "value": 1.3, "unit": "pulses/min"}, {"measurement": "velocity of ICG packets", "setting": "[1]", "value": "0.62 ± 0.23", "unit": "cm/s"}, {"measurement": "average interval between fluorescence intensity peaks in ROI", "setting": "second abdominal afferent lymph vessel, 7 minutes of imaging", "value": 46, "unit": "s"}]}
